Source: patent US4703048A, “Novel 1-benzhydryl-4-cinnamylpiperazine derivatives, and pharmaceutical compositions comprising said compounds as active ingredient for treating a cerebrovascular disease” (Kanebo Ltd., priority 1985, dated 1987)

Test system: vertebral blood flow
Test: Activity of increasing cerebral blood flow (vertebral blood flow), intravenous administration in anesthetized dogs
Type: in vivo
Conditions: Canis lupus familiaris; 0.03 to 0.3 mg/kg intravenous, anesthetized mongrel dogs; calculated from the regression line; read-out: VBF-ED50 (dose which increased the cerebral blood flow by 50%)

Work on `C(=Cc1ccccc1)CN1CCN(C(c2ccccc2)c2ccccc2)CC1` [Cinnarizine, reference compound] yielded an ED50 greater than 0.3 mg/kg.
